{"sequences": {"note": "By UniProt entry, the sequences of proteins in these tests, tags left out. Where a name states a change or a piece, a line headed by the entry shows the natural chain unless it says otherwise.", "UniProt Q8IU57": "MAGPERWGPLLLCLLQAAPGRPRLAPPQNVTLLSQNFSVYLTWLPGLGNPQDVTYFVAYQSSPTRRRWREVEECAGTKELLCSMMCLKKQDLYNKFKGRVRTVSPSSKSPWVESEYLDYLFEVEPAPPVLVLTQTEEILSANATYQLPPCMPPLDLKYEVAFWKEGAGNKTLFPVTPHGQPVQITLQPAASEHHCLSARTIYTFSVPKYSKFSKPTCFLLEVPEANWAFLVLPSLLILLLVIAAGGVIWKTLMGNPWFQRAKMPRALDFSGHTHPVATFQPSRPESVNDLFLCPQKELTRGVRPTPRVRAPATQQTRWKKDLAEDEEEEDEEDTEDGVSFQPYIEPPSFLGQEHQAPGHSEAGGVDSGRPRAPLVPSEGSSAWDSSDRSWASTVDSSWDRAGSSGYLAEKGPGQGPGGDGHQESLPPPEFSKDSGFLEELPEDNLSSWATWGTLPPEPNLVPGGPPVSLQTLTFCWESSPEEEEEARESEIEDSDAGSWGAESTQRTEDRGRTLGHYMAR"}, "source": "paper PMC4263767", "about": "“IL-28B is a Key Regulator of B- and T-Cell Vaccine Responses against Influenza” (PLoS Pathogens, 2014)", "key": {"[1]": {"molecular_target": "recombinant IL-28 receptor alpha subunit (IL28RA) (human) (UniProt Q8IU57)", "assay": "ELISA; competition ELISA: recombinant IL28RA coated on the plate, pre-treated with a fixed concentration of peptide (10 µM), then his-tagged IL-28B at 100 ng/mL; bound IL-28B detected with anti-his antibody; both purified"}, "[2]": {"molecular_target": "recombinant IL-28 receptor alpha subunit (IL28RA) (human) (UniProt Q8IU57)"}}, "note": "Where two headings read alike, the source gives them in different places. These are yes or no findings as the source states them, for the method shown. Binding calls can cover weak binding; strength is not graded here. Tags and fused reporters may be left off the sequences shown.", "data": [{"binder": "recombinant, his-tagged IL-28B (ligand, UniProt Q8IZI9 22-196) VPVARLRGALPDARGCHIAQFKSLSPQELQAFKRAKDALEESLLLKDCKCRSRLFPRTWDLRQLQVRERPVALEAELALTLKVLEATADTDPALGDVLDQPLHTLHHILSQLRACIQPQPTAGPRTRGRLHHWLHRLQEAPKKESPGCLEASVTFNLFRLLTRDLNCVASGDLCV", "values": [{"measurement": "binding", "setting": "[1]", "value": "binds"}, {"measurement": "binding", "setting": "[2]", "value": "binds"}]}]}
